Construct, isoform or probe ends are uncertain for at least one entry. Weaker means in comparison with the reference protein, sequence or condition of that experiment. Where a protein sequence is shown, tags need not be part of it.

From article PMC6614837 (Nucleic Acids Research, 2019) come the findings set out here.

In this series the target is T1, RNase P protein (TmP, P protein) (Thermotoga maritima) (UniProt Q9X1H4).
T1 sequence (looked up, limits assumed): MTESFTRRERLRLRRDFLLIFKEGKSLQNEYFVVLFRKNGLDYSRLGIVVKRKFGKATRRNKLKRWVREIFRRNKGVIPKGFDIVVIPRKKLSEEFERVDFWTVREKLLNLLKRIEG
Briefly: BLI. Conditions: 5 uM leader, BLI (Octet RED96): 20 mM HEPES pH 7.4, 100 mM ammonium acetate, 10 mM MgCl2, 2.5-5% DMSO, 30 C, P protein:P RNA in 33 mM Tris, 66.6 mM HEPES, 200 mM ammonium acetate, recombinant protein, protein details: N-terminal His6 (GST fusion cleaved with TEV). (In general: BLI is a label-free optical method that tracks binding on a fibre tip over time.)

Take GGAAAAAGAU [5' RNA leader (10 nt)]: the binding result runs as follows: (100 uM hematein) “binds more weakly”; (100 uM purpurin) “binds more weakly”.
